Test results: article PMC7089733
The exact form of at least one protein or probe is not confirmed. A weaker result is weaker than the reference pair of the same experiment.

Tested on: Nop5-E65C spin-labelled + L7Ae + fibrillarin E65C,L113K,V223E
Assay: NMR PRE
Details: 50 mM NaPi, 500 mM NaCl, pH 6.6, 100% D2O (NMR), 55 C, SANS in 42%:58% D2O:H2O, substrate at 1.2-1.25 molar equivalents, recombinant protein

Row | Sequence | binding result (stronger PRE on L7Ae than with substrate D) | binding result (weaker PRE on L7Ae than with substrate D')
1 | GCGAGCAAUGAUGAGUGAUGGGCGAACUGAGCUCGAAAGAGCAAUGAUGACGGAGGUGAUCACUGAGCUCGC / GCUUCGCCCAUCAC [st-sR26 + substrate D'] | binds | –
2 | GCGAGCAAUGAUGAGUGAUGGGCGAACUGAGCUCGAAAGAGCAAUGAUGACGGAGGUGAUCACUGAGCUCGC / GUAGAUCACCUCCG [st-sR26 + substrate D] | – | binds more weakly
